The values that follow come from paper PMC3616908.

Assay [1] addresses T1, Chk1 (yeast two-hybrid fusion) (S. cerevisiae) (UniProt P38147).
T1 sequence: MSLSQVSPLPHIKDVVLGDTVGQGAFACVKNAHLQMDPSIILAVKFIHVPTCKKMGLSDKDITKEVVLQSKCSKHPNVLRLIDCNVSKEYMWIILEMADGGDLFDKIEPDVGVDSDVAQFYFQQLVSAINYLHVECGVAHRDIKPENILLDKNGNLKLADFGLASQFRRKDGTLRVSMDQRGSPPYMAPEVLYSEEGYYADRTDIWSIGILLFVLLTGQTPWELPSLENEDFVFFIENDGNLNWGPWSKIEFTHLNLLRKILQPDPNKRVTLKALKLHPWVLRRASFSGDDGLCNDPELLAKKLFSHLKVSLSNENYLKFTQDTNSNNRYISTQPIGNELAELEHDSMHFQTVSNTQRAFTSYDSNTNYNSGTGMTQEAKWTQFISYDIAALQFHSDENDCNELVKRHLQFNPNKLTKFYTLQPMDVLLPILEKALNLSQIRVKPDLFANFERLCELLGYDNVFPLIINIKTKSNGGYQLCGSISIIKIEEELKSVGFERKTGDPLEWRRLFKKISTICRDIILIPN
Nature of the assay: two-hybrid; Matchmaker Gold Y2H cells arrested in G2/M and in G1; alpha-galactosidase activity measured by the PNP assay (Figure S5A).

Assay [2] addresses T1, Chk1 (yeast two-hybrid fusion) (S. cerevisiae). The assay is described as follows: two-hybrid; Clontech Matchmaker Gold system; interaction read by white colony colour, resistance to Aureobasidin A and blue colour on X-alpha-gal (Figure 5A, six clones each); read-out of Figures 6A and S6C-E not told.

These are yes or no findings as the source states them, for the method shown. Some binding calls cover weakened binding; strength is not graded here. Sequences can lack the tags named with a protein.

B1: full length Rad9 (yeast two-hybrid fusion) (protein, UniProt P14737 1-1309)
chain: MSGQLVQWKSSPDRVTQSAIKEALHSPLADGDMNEMNVPVDPLENKVNSTNIIEGSPKANPNPVKFMNTSEIFQKSLGLLDESPRHDDELNIEVGDNDRPNANILHNERTPDLDRIANFFKSNRTPGKENLLTKYQSSDLEDTPLMLRKKMTFQTPTDPLEQKTFKKLKSDTGFCYYGEQNDGEENASLEVTEADATFVQMAERSADNYDCALEGIVTPKRYKDELSKSGGMQDERVQKTQIMISAESPNSISSYDKNKITGNGRTTRNVNKVFNNNEDNIGAIEEKNPVKKKSENYSSDDLRERNNQIIQSNESEEINELEKNLNVSGRENDVNNLDIDINSAVSGTPSRNNAEEEMYSSESVNNREPSKKWIFRYSKDKTENNSNRSTQIVNNPRTQEMPLDSISIDTQPLSKSFNTETNNELETQIIVSSLSQGISAQKGPVFHSTGQTEEIKTQIINSPEQNALNATFETPVTLSRINFEPILEVPETSSPSKNTMSKPSNSSPIPKEKDTFNIHEREVETNNVFSNDIQNSSNAATRDDIIIAGSSDFNEQKEITDRIYLQLSGKQISDSGSDETERMSPNELDTKKESTIMSEVELTQELPEVEEQQDLQTSPKKLVVEEETLMEIKKSKGNSLQLHDDNKECNSDKQDGTESLDVALIEHESKGQSSELQKNLMQLFPSESQEIIQNRRTIKRRQKDTIEIGEEEENRSTKTSPTKHLKRNSDLDAASIKREPSCSITIQTGETGSGKDSKEQSYVFPEGIRTADNSFLSKDDIIFGNAVWCQYTWNYKFYPGILLEVDTNQDGCWIYFETGRSLTKDEDIYYLDIRIGDAVTFDGNEYVVVGLECRSHDLNIIRCIRGYDTVHLKKKNASGLLGKRTLIKALSSISLDLSEWAKRAKIILEDNEKNKGDAYRYLRHPIRGRKSMTNVLSPKKHTDDEKDINTHTEVYNNEIESSSEKKEIVKKDSRDALAEHAGAPSLLFSSGEIRTGNVFDKCIFVLTSLFENREELRQTIESQGGTVIESGFSTLFNFTHPLAKSLVNKGNTDNIRELALKLAWKPHSLFADCRFACLITKRHLRSLKYLETLALGWPTLHWKFISACIEKKRIVPHLIYQYLLPSGESFRLSLDSPSKGGIIKSNNIFSFYTQFLRGSNLRDQICGVKKMLNDYIVIVWGRSELDSFVKFAFACLSAGRMLTIDLPNIDVDDTEPLLNALDSLVPRIGSELSNRKLKFLIYANENNGKSQMKLLERLRSQISLKFKKFNYIFHTESKEWLIQTIINEDTGFHDDITDNDIYNTISEVR
In the case of B1, the binding entry in assay [1] and in assay [2] was “binds” throughout.
